# Primary screen of a compound library

Source: ChEMBL document CHEMBL3988442, “University of Dundee, Small-Polar-MMV Screening Library” (2021).

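Assay of Toxoplasma gondii numbers, read through their beta-galactosidase reporter with a colour substrate. Compounds at 50 µM. Higher reads as fewer parasites (inferred from which compounds were picked for retests). Size under these conditions: about 18,000 compounds, about 170 of them at 50% or above in at least one test.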

The filed quantity is “Percent Effect” (%).
The record does not define 0% and 100%; most values in the screen are far below 50% and negative numbers occur (in some assays of this library far below -100).
This is an unselected part of the compounds tested.

compound	effect
COCCNC(=O)c1cccnc1SC(F)F	-15.66
CCS(=O)(=O)CC(=O)Nc1cc(Cl)ccc1C	-11.98
O=C1CCC2(CCN(CCn3cc(Cl)cn3)CC2)N1	-6.006
CCN1CCN(C(=O)CSc2ccncc2)C(C)C1=O (stereo not shown)	-21.36
CCC(SC)C(=O)NCc1nnc(C)n1C1CC1 (stereo not shown)	-10.86
CCNCC(=O)NCCc1c[nH]c2ccccc12	1.533
COc1ccc(CCNC(C)=O)c(F)c1	-1.965
CN(C)C(=O)C1CCCN1Cc1ncc(Cl)n1C (stereo not shown)	-0.2843
CCSc1nccc(N)n1	10.5
COc1cn(C)c(C(=O)NCc2ccco2)cc1=O	1.865
COCC(C)(C)NC(=O)Cc1cccc(O)c1	-2.319
CC(c1ccccn1)N1CCCSCC1 (stereo not shown)	10.19
CN1CCCCC1CC(=O)NCc1ccc(O)cc1O (stereo not shown)	2.511
COc1cc(C(=O)n2ccc(C)n2)cc(OC)c1OC	18.06
CC(C)C[C@H](N)C(=O)N1CCOCC1	-3.159
O[C@H]1C[C@@H](N2CCCC2)C1	11.5
Cc1nccn1CCN(C)C(=O)COCC1CCCO1 (stereo not shown)	-3.908
CC(C(=O)N1CCCCC1)N1CCCCC1=O (stereo not shown)	4.594
O=C(CSc1ncnn1-c1ccccc1)N1CCCC1	-0.6017
CN(CCCS(C)(=O)=O)CC1CCN(CCO)CC1	-0.1283
CC(=O)N1CCC(C(=O)c2ccc(C)cc2)CC1	-10.35
CC(C)(C)CNC(=O)CCN1C(=O)CCC1=O	-5.033
O=C(CNC1CC1)NCCc1ccc(F)cc1	-0.9346
CS(=O)(=O)c1nccn1CCCN1CCCCC1	1.003
CCC(O)(CC(N)=O)c1ccccc1 (stereo not shown)	-1.42
CCCn1ncc(CN2CCN(S(N)(=O)=O)CC2)c1C	-6.995
CC(N)C1=CCN(C)CC1 (stereo not shown)	-8.555
O=C(CN1CCCN(CC2CCC2)CC1)N1CCCC1	12.03
Cc1ccc(C(=O)N2CCCC(C)(C#N)C2)cc1O (stereo not shown)	-3.592
OCCNC1CCC1	-9.157
COc1cccc(C=C2CCNCC2)c1	7.033
CCCn1c(O)nnc1SCc1cccnc1	-7.721
Cc1cc(C2CCCN2)on1 (stereo not shown)	-7.97
CN1C(=O)c2cccn2CC1CNC(=O)c1ccco1 (stereo not shown)	46.69
CC1(C2CCCN(C(=O)c3ccncc3)C2)OCCO1 (stereo not shown)	0.5943
Cc1ccc(S(=O)(=O)NCCS(C)(=O)=O)cc1C	-5.386
CCN(Cc1nc(CSC)no1)[C@H]1COC[C@@H]1O	6.955
CNC(=O)CN(C)c1cnc2ccccc2n1	-3.096
CN1CCC(NC(=O)c2coc(Br)c2)CC1=O (stereo not shown)	-20.01
O=C(CSc1cnn[nH]1)OCc1ccccc1	8.892
CC(=O)Nc1nnc(C2CCCN2)o1 (stereo not shown)	1.079
COCC1CCN(C(=O)c2c(C)cc(C)[nH]c2=O)C1 (stereo not shown)	3.661
CCO[C@H]1CN(CCCc2ccco2)C[C@@H]1O	0.1329
Cc1cc(S(=O)(=O)NC2CCS(=O)(=O)C2)c(C)s1 (stereo not shown)	3.259
O=C(NCCc1nc2c(s1)CCC2)c1cn[nH]c1	1.847
COCCOc1ccc(NC(=O)OCC(F)(F)F)cn1	-28.41
CCC(CCO)NS(=O)(=O)c1cccc2ncccc12 (stereo not shown)	4.317
CN(CCNC(=O)c1cnc[nH]1)Cc1ccc(F)cc1	-6.987
O=C(C1CCC1)N1CCCC(CN2CCOCC2)CC1 (stereo not shown)	9.575
CC(C)(C)Sc1cc(C(=O)NCC(O)C2CC2)ccn1 (stereo not shown)	-0.243
Cn1ccnc(NC(=O)NCCc2ccccn2)c1=O	-9.574
CCS(=O)(=O)c1ccc(C(C)=O)cc1	5.806
O=C(Cc1c[nH]c2ccccc12)N1CCNCC1	-19.64
CN(Cc1nnc(N)o1)C(=O)c1ccccc1	-14.41
CCNC(=O)COc1cccc(NC(=O)NC)c1	-17.9
CCC(=O)N1CCN(Cc2ccc(Br)cn2)CC1	10.67
Cc1noc(C)c1CNC(=O)NCC1CCCOC1 (stereo not shown)	-25.76
COc1ccccc1NC(=O)N1CCOC(C)C1 (stereo not shown)	4.166
CC(=O)NC(C)C(=O)Nc1ccc2ccccc2c1 (stereo not shown)	-30.81
CNCCN1CCOC1=O	-0.7684
CC(C)C1NCCNC1=O (stereo not shown)	13.07
COc1cccc(CC(=O)N(C)Cc2cnccn2)c1	6.837
O=C1N(CC2CCC2)CCCC1(O)CN1CCOCC1 (stereo not shown)	0.3822
O=C(NCc1cccs1)c1cnsn1	5.314
COCCC1CN(C(=O)Cc2cccc(O)c2)CCO1 (stereo not shown)	5.417
CCC(=O)NC1CCCc2occc21 (stereo not shown)	21.6
CCN(Cc1ccoc1)C(=O)[C@@H](N)C(C)C	-11.2
CCNC(=O)CNC	-0.7376
CC(C)(C)OC(=O)N1CCn2ccnc2C1	-0.5841

Once more, the final 9:

| compound | effect |
|---|---|
| `CC(C)C1NCCNC1=O` (stereo not shown) | 13.07 |
| `COc1cccc(CC(=O)N(C)Cc2cnccn2)c1` | 6.837 |
| `O=C1N(CC2CCC2)CCCC1(O)CN1CCOCC1` (stereo not shown) | 0.3822 |
| `O=C(NCc1cccs1)c1cnsn1` | 5.314 |
| `COCCC1CN(C(=O)Cc2cccc(O)c2)CCO1` (stereo not shown) | 5.417 |
| `CCC(=O)NC1CCCc2occc21` (stereo not shown) | 21.6 |
| `CCN(Cc1ccoc1)C(=O)[C@@H](N)C(C)C` | -11.2 |
| `CCNC(=O)CNC` | -0.7376 |
| `CC(C)(C)OC(=O)N1CCn2ccnc2C1` | -0.5841 |